Taken from: PubChem BioAssay AID1259308 (NCATS, 2017)

- Test: 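Knock-downs that increase output of a recombinant reporter protein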 (primary screen)
- Cell system: human HEK293 embryonic kidney cells stably expressing firefly luciferase (HEK-CMV-Luc2-Hygro)
- Reagent: single siRNA against human genes, 0.8 pmol siRNA per well
- Timing: 72 h
- Detection: 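Luciferase light (ONE-Glo) measured on one replicate plate set and viability (CellTiter-Glo) on the other, scaled to a negative control siRNA, with robust z-scores and luciferase per cell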
- Direction: total luciferase, z-score: higher = more reporter protein produced
- Hit rule: 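Active when the median/MAD z-score for overall luciferase is greater than 3; a gene was taken forward for validation with new siRNAs if at least two of its three siRNAs passed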
- Meaning of the calls: active = raised luciferase; inactive = no rise
In all, the deposit lists about 59,000 reagents; shown is a random part of them. About 1,510 of all reagents (2.6%) were called active. 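Calls use total luciferase alone and ignore viability, so some active siRNAs may act by altering cell number.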 Unmarked entries are inactive. Reagents against one gene are numbered here. Further read-outs or replicates are left out here.

How did the screen score IFNWP2 (interferon omega 1 pseudogene 2) #1?
total luciferase, z-score: -1.23

What is on record for IFNWP2 (interferon omega 1 pseudogene 2) #2?
total luciferase, z-score: -0.697

For IFNWP2 (interferon omega 1 pseudogene 2) #3, what does the deposit list?
total luciferase, z-score: -1.87

How did the screen score FAT3 (FAT atypical cadherin 3) #1?
total luciferase, z-score: 0.212

For FAT3 (FAT atypical cadherin 3) #2, how do the results read?
total luciferase, z-score: -0.767

For FAT3 (FAT atypical cadherin 3) #3, what was measured?
total luciferase, z-score: -0.276

Part of the list above in another layout.
{"gene symbol": "IFNWP2 (interferon omega 1 pseudogene 2)", "reagent no.": 1, "total luciferase, z-score": -1.23}
{"gene symbol": "IFNWP2 (interferon omega 1 pseudogene 2)", "reagent no.": 2, "total luciferase, z-score": -0.697}

Additional entries follow:
With FSCB (fibrous sheath CABYR binding protein) #1, what was measured?
total luciferase, z-score: 2.52

With FSCB (fibrous sheath CABYR binding protein) #2, how do the results read?
total luciferase, z-score: -0.218

How did the screen score FSCB (fibrous sheath CABYR binding protein) #3?
total luciferase, z-score: -0.429

Which result is listed for SMTN (smoothelin) #1?
total luciferase, z-score: -1.34

Which result is listed for SMTN (smoothelin) #2?
total luciferase, z-score: 2.22

For SMTN (smoothelin) #3, what was measured?
total luciferase, z-score: -0.997
